From paper doi:10.1101/529222
No constants are given. Whether binding was seen depends on the method and setting. In cells and extracts the contact can be indirect. A result given as binding can be weak or reduced; the word gives no strength.

Protein sequences, listed by entry. Tags and fused reporters are not part of them. Lines headed by an entry give the natural chain unless they say otherwise; changes in a name come on top.
UniProt P70460: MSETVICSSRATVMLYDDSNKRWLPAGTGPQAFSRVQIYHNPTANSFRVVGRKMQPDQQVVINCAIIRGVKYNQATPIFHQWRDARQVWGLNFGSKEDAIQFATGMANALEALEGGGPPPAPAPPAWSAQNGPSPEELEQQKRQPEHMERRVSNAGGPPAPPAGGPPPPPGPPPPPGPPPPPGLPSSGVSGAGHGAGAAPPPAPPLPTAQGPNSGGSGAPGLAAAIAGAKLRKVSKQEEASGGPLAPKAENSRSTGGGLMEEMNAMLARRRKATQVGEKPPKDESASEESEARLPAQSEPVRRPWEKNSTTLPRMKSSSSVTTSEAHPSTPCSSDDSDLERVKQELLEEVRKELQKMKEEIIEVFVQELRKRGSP

Biological target: GST-EVH1 domain of VASP (UniProt P70460)
Assay: pull-down

- binding: binds
B1: endogenous TRIM67 (protein, UniProt Q505D9 1-768)
chain: MEEELKCPVCGSLFREPIILPCSHNVCLPCARTIAVQTPDGEQHLPPPLLLSRGAAAAATPPDQDAAAGATSGGAGANTAGGLGGGATGGGDHADKLSLYSETDSGYGSYTPSLKSPNGVRVLPMVPAPPGSSAAAARGAACSSLCSSSSSITCPQCHRSASLDHRGLRGFQRNRLLEGIVQRYQQGRGVVPGAAAAPAVAICQLCDRTPPEPAATLCEQCDVLYCATCQLKCHPSRGPFAKHRLVQPPPPPTPPEATPAVTGTSTASSAGGCRSPGGAGASAPRKFPTCPEHEMENYSMYCVSCRSPVCYMCLEEGRHSKHEVKPLGATWKQHKAQLSQALNGVSDKAKEAKEFLVQLKNILQQIQENGLDYEACLVAQCDALVDALTRQKAKLLTKVTKEREHKLKMVWDQINHCTLKLRQSTGLMEYCLEVIKEDDPSGFLQISDALIKRVQTSQEQWVKGALEPKVSAEFDLTLDSEPLLQAIHQLDFVQMKLPPVPLLQLEKCCTRNNSVTLAWRTPPFTHSPAEGYILELDDGDGGQFREVYVGKETLCTIDGLHFNSTYNARVKAFNSSGVGPYSKTVVLQTSDVAWFTFDPNSGHRDIILSNDNQTATCSSYDDRVVLGTAAFSKGVHYWELHVDRYDNHPDPAFGVARASVVKDMMLGKDDKAWAMYVDNNRSWFMHCNSHTNRTEGGVCKGATVGVLLDLNKHTLTFFINGQQQGPTAFSHVDGVFMPALSLNRNVQVTLHTGLEVPTNLGRPKLSGN
